From patent US20190300618A1 (Merck Sharp & Dohme, published 2019) come the findings set out here.

Results are given in words; binding and its absence hold for the method and conditions named. For some assays here: A result given as binding can be weak or reduced; the word gives no strength.

For test [1], the target named is MmCD27 (H258D). In words: flow cytometry, transiently transfected CHO-K1. Background: A flow cytometer gives signals particle by particle.
In test [2] the target is HsCD27 (D249H). In words: flow cytometry, transiently transfected CHO-K1.

B1: chimeric hCD27.15-c4 (antibody, human IgG4 S228P, kappa, V domains shown)
VH: EVRLQQSGADLVKPGASVKLSCTASGFIIKATYMHWVRQRPEQGLEWIGRIDPANGETKYDPKFQVKATITADTSSSTAYLQLNSLTSDDTAVYYCARYAWYFDVWGAGTTVTVSS
VL: DIQMTQSPASLSASVGDTVTITCRASENIYSFLAWYHQKQGRSPQLLVYHAKTLAEGVPSRFSGSGSGTQFSLKINSLQAEDFGSYYCQHYYGSPLTFGAGTKLEVKR
As to B1, the binding entry is “binds” in test [1] and “no binding” in test [2].
